## Library screen at single concentrations

Values are the deposited “Percent Effect”, in %.
The controls that fix the scale are not given in the record; negative values are as filed.
This is an unselected part of the compounds tested.
Two or more numbers in one place are separate tests of the same structure; such repeats can differ widely.

Mtb cholesterol medium: 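Whole-cell growth test on Mycobacterium tuberculosis, read after 4 days in a medium based on cholesterol and the lipid DPPC; the read-out is not stated. Compounds at 50 µM. Direction is inferred from retests: higher values go with more growth inhibition. About 69,000 compounds were tested under these conditions; 0.54% (about 370) showed 50% or more at least once.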
Mtb glucose medium: 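Whole-cell growth test on Mycobacterium tuberculosis, read after 3 days in glucose-containing 7H9 medium; the read-out is not stated. Compounds at 50 µM. The record gives no direction; compounds that gave an IC50 in retests scored well above the rest, so higher reads as more growth inhibition. Size under these conditions: about 69,000 compounds, about 760 of them at 50% or above in at least one test.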

Compound	Mtb cholesterol medium	Mtb glucose medium
CN(C)c1ccc(C(=O)N2CCN(CC(O)C(C)(C)C)CC2)nn1 (centres undefined)	-8.328%	-11.32%
CN(C)S(=O)(=O)N1CCC(c2cccc(Cc3ccccc3Cl)n2)CC1	-14.57%	5.91%
CCn1ncnc1CN(C/C=C/c1ccccc1)CCOC	13.24%	12.75%
CNS(=O)(=O)CC(=O)NCc1cc2c(s1)CCC(C)(C)C2	10.01%	27.77%
Cn1cc(CN2CCOC[C@H]2c2nc(C(C)(C)C)co2)c2ccccc21	-9.778%	9.572% and -0.09617%
COc1ncccc1NC(=O)NCC(O)c1ccc(F)cc1F (centres undefined)	-28.88%	-9.347%
Cc1cn2c(CN(C)C(=O)c3nccnc3N)c(C)nc2s1	1.713%	15.83%
c1ccc(-n2cc(CN3CCCCC3Cn3cncn3)nn2)cc1 (centres undefined)	-4.182%	-20.98%
CCN(Cc1noc(CC(C)C)n1)Cc1ccccc1Cl	-8.297%	45.52%
CC(C)CC(=O)Nc1ccccc1Oc1ccsc1C(=O)O	-27.41%	18.64% and 2.807%
CCS(=O)(=O)NCCNC(=O)c1cc(Cl)c2c(c1)OCCCO2	9.816%	28.5%
COc1ccccc1CN(Cc1cccnc1)Cc1c[nH]c(C)n1	-23.25%	-41.72%
O=C(NCCC1CCN(CC(F)(F)F)CC1)C1CCOC1 (centres undefined)	-2.361%	11.52%
O=C(Cc1cccnc1)N1CCC(OCc2ccccc2)CC1	-12.34%	-24.23%
Cc1cc(C)n(-c2ccnc(N3CCC(C(=O)N4CCCC4)CC3)n2)n1	2.103%	5.798% and -3.078%
N#Cc1ccc(NCCc2n[nH]c(=O)[nH]2)cc1Cl	11.49%	18.02%
COCCNC(=O)CCn1ncc2c(Cl)cccc21	2.954%	-1.932%
Cc1cc(C)c(CNC(=O)NCCCNc2ccccn2)c(=O)[nH]1	9.154%	3.768% and -4.867%
O=C(NCc1cccc(F)c1)N1CCC2(CC(=O)N(c3ccsc3)C2)C1 (centres undefined)	31.71% and 0.4013%	-4.227%
CCc1cnc(CN(C(C)=O)C2CCN(CCc3ccccn3)C2)o1 (centres undefined)	1.571%	-21.98%
Cc1ccc(C(=O)NCc2cc(F)ccc2N2CCCN(C)CC2)o1	-4.657%	33.54%
O=C(CN1CCC(c2ccccc2)CC1)NCc1cc2n(n1)CCNC2	22.9%	0.8591%
Cc1cc(NCc2cccnc2)n2nc(C)cc2n1	-15.85%	-24.68%
[H][C@]12CC[C@@H](N(C)c3ccc(C)nn3)[C@@]1([H])CN(C(=O)C1CCOCC1)C2	-14.56%	-14.09%
O=C(O)C(F)(F)F.[H][C@@]12CCN(S(C)(=O)=O)[C@@]1([H])CCN2Cc1ccc(C)s1	5.456%	-4.478% and -22.52%
COc1cc(CNCc2c(C)nn(C)c2N(C)C)ccc1OCCO	-22.77%	-16.47%
COc1ccc2cc(C(=O)N3CCCC3Cn3cc(C)cn3)[nH]c2c1 (centres undefined)	0.6748%	13.65%
CCOCc1nnc2n1CCN(Cc1c(C)noc1C)CC2.O=C(O)C(F)(F)F	-10.39%	-19.08%
O=C(Cn1cc(I)cn1)N1CCCC1	10.03%	20.05%
Cc1nnc2n1CCN(CC(=O)NC(C)c1cc3ccccc3o1)C2 (centres undefined)	-23.14%	-35.39%
Cc1nc(CNC(=O)C(C)(C)c2ccc(F)cc2)no1	-10.11%	-21.24%
[H][C@@]12CCN(C(=O)c3cccnc3OC)C[C@@]1([H])O[C@H](c1nccs1)C2	-8.456%	4.429%
Cc1nc(C2CCCN2CCc2cccs2)no1 (centres undefined)	-22.32%	-29.84%
Cn1ccc(CN2CCC(OCc3ccccc3)CC2)cc1=O	-16.54%	-2.802%
Cc1cc(CN(C)C(=O)C2CCCN(C(=O)c3ccc(Cl)cc3)C2)no1 (centres undefined)	-6.461%	-0.2256%
Cc1cnn(CCNCc2c(C)nn(C)c2Cl)c1	-14.69% and -17.98%	8.781%
O=C(CCCc1nnc(-c2ccccc2)o1)N1CCN(CCO)CC1	-1.363%	-14.69%
O=C(c1cnn2cc(CCO)cnc12)N1CCOC(C(F)(F)F)C1 (centres undefined)	-12.56%	-4.4% and 2.453%
Cc1ccc(C)c(OCC(O)Cn2ncc3cnn(C)c(=O)c32)c1 (centres undefined)	4.701%	7.331%
COC(=O)Nc1cccc(C(=O)N(C)Cc2cccc(O)c2)c1	2.57%	10.64%
CN(C)C(=O)c1cc2ncc(C(=O)NC3CC3)cc2n1C	-20.45%	-27.24%
CCCn1cnnc1CN(C)C(=O)CCC(=O)Nc1cc(C)ccc1F	9.446%	-5.42% and 0.1505%
COc1ccc2c(c1)CC(C1CCOCC1)N(C(=O)c1ccnn1C)C2 (centres undefined)	4.943% and -0.1292%	-8.407%
CCC(O)CN1CCN(C(=O)c2ccc(Cn3cccc3)cc2)CC1 (centres undefined)	-25.17%	-18.52%
CCc1nc(NCCn2cccn2)c2c(n1)c(C)nn2C	-3.094%	6.475%
CN(Cc1cnc2ccccc2c1)C(=O)C(c1ccccc1F)N(C)C (centres undefined)	-3.166%	-4.828%
Cc1cnn(CCNCC(=O)N2CCN(c3ncccn3)CC2)c1	-3.414%	9.246%
Cc1ccc(N2CCCN(C(=O)c3cn(C)c4ccccc34)CC2)nn1	13.52%	18.52%
Cc1cc(C(=O)N2C[C@@H](C(=O)O)[C@H](C(C)C)C2)cs1	6.269%	24.98%
[H][C@]12CC[C@]([H])(CN(Cc3ccc(Cn4cccn4)cc3)C1)N(CCC)C2	-2.171%	38.83%
CC(C)N(C)CC(=O)N1CCCC(n2ccnc2)C1 (centres undefined)	21.52%	-7.452%
CC(C)(C)n1ncc2c1NC(=O)CC2c1cccc(F)c1 (centres undefined)	12.03%	9.947%
C[C@]1(O)CCN(Cc2ncccc2F)C[C@@H]1Oc1ccccc1	0.453%	-16.58%
CNc1nc(C2CCCN(C(=O)CNC(C)=O)C2)nc2c1CN(C)CC2 (centres undefined)	-2.685%	-11.43%
O=C(O)C(F)(F)F.O=C(O)C(F)(F)F.O=C(O)C(F)(F)F.O=C(O)C(F)(F)F.[H][C@@]12CN(Cc3ccccn3)C[C@]1([H])OCCN2CCN(C)C	-11.1%	-12.91% and -5.245%
CN1CC2(CCN(Cc3cccnc3)CC2)c2cccc(F)c21.Cl	0.8406%	3.704% and -14.77%
COc1nccnc1N1CCN(Cc2ccc(F)cc2)C(=O)C1	-5.472%	7.2% and 4.329%
Cc1ccccc1CC1(CO)CCCN(c2ncnc3sccc23)C1 (centres undefined)	10.37%	35.63% and 32.19%
CN(C)c1nc(NCc2cccnc2N)ncc1F	-0.5769%	21.81%
CCCn1cc(Cl)c(C(=O)N2C[C@@H](O)[C@H](Oc3ccccc3)C2)n1	36.85% and 4.889%	23.81%
Cc1nccc(NCc2cncc3c2CCN(CC2CC2)C3)n1.Cl.Cl	-0.3708%	21.67%
CCNc1cc2c(nn1)CCN(C(=O)c1ccnc(N(C)C)c1)C2	-6.778%	1.714%
Cc1cc(C)nc(N2CCOC(C)(C(=O)N(C)C)C2)n1 (centres undefined)	-16.57%	-26.71%
[H][C@@]12CS(=O)(=O)C[C@]1([H])N(Cc1cccnc1)CCN2C(=O)C1CCC1	-22.53%	-3.721% and -26.45%
COc1ccc(C(=O)NCCNC(=O)c2scnc2Cl)cc1	11.22%	10.85%
CCc1nc(CN2CCCC(NCc3cccc(C(N)=O)c3)C2)no1 (centres undefined)	10.55%	-31.82% and -2.789%
O=C(O)C1(n2ccc(-c3ccco3)n2)CCN(Cc2cccs2)CC1	-4.851%	-8.4%
Cn1ncc2c1NC(=O)CSC2c1ccccc1Cl (centres undefined)	-20.77%	-18.07%
Cc1cc(CNC(=O)Nc2cc(F)cc(N3CCCC3)c2)no1	-16.07%	-23.9%
[H][C@@]12CCN(Cc3ccccn3)C[C@]1([H])[C@@H](CNc1ncccn1)OC2	12.11%	-6.376%
COC1CCCOC12CCN(C(=O)NCc1ccco1)CC2 (centres undefined)	-5.826%	10.88%

The first 8 entries again:

- CN(C)c1ccc(C(=O)N2CCN(CC(O)C(C)(C)C)CC2)nn1 (centres undefined) | Mtb cholesterol medium: -8.328%; Mtb glucose medium: -11.32%
- CN(C)S(=O)(=O)N1CCC(c2cccc(Cc3ccccc3Cl)n2)CC1 | Mtb cholesterol medium: -14.57%; Mtb glucose medium: 5.91%
- CCn1ncnc1CN(C/C=C/c1ccccc1)CCOC | Mtb cholesterol medium: 13.24%; Mtb glucose medium: 12.75%
- CNS(=O)(=O)CC(=O)NCc1cc2c(s1)CCC(C)(C)C2 | Mtb cholesterol medium: 10.01%; Mtb glucose medium: 27.77%
- Cn1cc(CN2CCOC[C@H]2c2nc(C(C)(C)C)co2)c2ccccc21 | Mtb cholesterol medium: -9.778%; Mtb glucose medium: 9.572% and -0.09617%
- COc1ncccc1NC(=O)NCC(O)c1ccc(F)cc1F (centres undefined) | Mtb cholesterol medium: -28.88%; Mtb glucose medium: -9.347%
- Cc1cn2c(CN(C)C(=O)c3nccnc3N)c(C)nc2s1 | Mtb cholesterol medium: 1.713%; Mtb glucose medium: 15.83%
- c1ccc(-n2cc(CN3CCCCC3Cn3cncn3)nn2)cc1 (centres undefined) | Mtb cholesterol medium: -4.182%; Mtb glucose medium: -20.98%

From ChEMBL document CHEMBL3988442, “University of Dundee, Small-Polar-MMV Screening Library” (2021).